Data: PMC4712026
Results are given in words; binding and its absence hold for the method and conditions named. Binding seen in cells or lysates may run through a third protein. Some results given as binding are weak or reduced against the parent protein; the word gives no strength. Tags and fused reporters may be left off the sequences shown.

Amino acid sequences for entries named in this document (tags omitted).
UniProt Q9JIF0: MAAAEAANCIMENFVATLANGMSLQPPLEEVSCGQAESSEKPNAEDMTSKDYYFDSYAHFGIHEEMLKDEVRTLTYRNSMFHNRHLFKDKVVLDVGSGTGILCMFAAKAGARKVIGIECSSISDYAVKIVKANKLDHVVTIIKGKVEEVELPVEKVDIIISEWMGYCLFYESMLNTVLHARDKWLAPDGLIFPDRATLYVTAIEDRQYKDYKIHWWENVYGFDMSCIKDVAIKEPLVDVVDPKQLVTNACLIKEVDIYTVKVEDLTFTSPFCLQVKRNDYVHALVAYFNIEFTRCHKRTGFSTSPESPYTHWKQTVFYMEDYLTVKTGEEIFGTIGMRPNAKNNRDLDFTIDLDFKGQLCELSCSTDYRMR

Biological target: T1, GST-GAS7 WW domain (UniProt O60861)
T1 sequence: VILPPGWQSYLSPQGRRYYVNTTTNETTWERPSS
Test: pull-down; in vitro GST pull-down with GST-GAS7 WW domain as bait (Figure 1B)

binding: binds
Substance: Prmt1 (input of the GST pull-down) (from UniProt Q9JIF0 1-371) (enzyme)
